In paper PMC8407544:

Molecular target: T1, GFP:Orco (odour-receptor coreceptor, GFP-tagged) (Drosophila melanogaster) (UniProt Q9VNB5)
T1 sequence: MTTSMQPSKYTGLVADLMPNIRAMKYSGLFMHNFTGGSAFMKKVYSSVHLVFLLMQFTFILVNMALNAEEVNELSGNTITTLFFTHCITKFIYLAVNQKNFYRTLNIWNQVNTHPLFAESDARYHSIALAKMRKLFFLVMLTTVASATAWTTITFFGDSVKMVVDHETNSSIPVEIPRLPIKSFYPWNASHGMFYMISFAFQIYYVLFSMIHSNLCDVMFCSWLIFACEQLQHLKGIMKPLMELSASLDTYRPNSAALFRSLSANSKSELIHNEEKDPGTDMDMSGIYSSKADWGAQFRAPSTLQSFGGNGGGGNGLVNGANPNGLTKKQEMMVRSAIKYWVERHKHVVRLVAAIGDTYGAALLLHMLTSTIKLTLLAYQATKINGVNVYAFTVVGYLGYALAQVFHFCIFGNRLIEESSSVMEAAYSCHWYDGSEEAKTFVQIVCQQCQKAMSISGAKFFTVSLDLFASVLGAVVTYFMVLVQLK
Assay: co-IP; agarose beads conjugated with GFP-nanobody (chromotek); head extracts of chaGal4>UAS-GFP:Orco adults; western blot

DmKAP (kinesin associated protein, accessory subunit of heterotrimeric kinesin-2)
binding: binds

Results are given in words; binding and its absence hold for the method and conditions named. In cells and extracts the contact can be indirect. Binding can be weak; no strength is given. Tags and fused reporters may be left off the sequences shown.
